Measured values as given in patent publication US20230027026A1, “FUSED PYRIMIDINE COMPOUNDS, COMPOSITIONS AND MEDICINAL APPLICATIONS THEREOF” (JUBILANT BIOSYS LIMITED, priority 2019, published 2023).
The structures given here were assigned with low confidence; some may be wrong.

The chains behind the UniProt entries cited, without tags or fusion partners. A line that says so, or that is headed by a name, gives the form on record, which may keep a tag or linker. Residues count along the entry.
UniProt P00533, with tags, fused parts or gaps DUP767-769: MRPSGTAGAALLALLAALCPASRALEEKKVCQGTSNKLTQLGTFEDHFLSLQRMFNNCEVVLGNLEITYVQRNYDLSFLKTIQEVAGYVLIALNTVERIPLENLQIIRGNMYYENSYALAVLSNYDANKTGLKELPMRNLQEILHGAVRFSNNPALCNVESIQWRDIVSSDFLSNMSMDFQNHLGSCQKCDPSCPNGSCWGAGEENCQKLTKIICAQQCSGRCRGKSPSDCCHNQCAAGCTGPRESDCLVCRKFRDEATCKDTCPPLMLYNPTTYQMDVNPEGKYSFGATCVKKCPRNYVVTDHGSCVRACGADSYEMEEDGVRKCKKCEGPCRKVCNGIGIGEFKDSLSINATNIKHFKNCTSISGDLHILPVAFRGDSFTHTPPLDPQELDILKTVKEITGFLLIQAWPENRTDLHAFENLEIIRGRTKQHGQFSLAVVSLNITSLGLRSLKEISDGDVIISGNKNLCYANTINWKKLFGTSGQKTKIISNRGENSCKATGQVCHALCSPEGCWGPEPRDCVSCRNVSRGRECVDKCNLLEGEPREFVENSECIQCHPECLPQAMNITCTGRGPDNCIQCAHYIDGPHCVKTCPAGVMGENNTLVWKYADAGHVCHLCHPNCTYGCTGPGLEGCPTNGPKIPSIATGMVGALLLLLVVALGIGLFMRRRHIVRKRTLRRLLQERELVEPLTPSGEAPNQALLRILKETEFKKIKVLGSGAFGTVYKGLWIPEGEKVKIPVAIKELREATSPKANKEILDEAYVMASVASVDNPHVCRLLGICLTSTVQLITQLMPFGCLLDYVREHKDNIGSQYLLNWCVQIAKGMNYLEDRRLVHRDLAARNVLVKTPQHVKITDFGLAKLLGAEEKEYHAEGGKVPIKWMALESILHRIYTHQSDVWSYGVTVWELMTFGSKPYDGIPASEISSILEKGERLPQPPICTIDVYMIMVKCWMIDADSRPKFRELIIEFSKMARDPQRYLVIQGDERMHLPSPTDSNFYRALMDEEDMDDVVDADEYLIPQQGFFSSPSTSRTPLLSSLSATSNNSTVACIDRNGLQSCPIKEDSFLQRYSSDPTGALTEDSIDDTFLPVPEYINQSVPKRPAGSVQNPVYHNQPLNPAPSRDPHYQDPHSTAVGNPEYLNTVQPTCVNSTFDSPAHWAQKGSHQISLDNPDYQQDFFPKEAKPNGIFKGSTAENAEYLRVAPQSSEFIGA
UniProt P00533, with tags, fused parts or gaps DUP768-770: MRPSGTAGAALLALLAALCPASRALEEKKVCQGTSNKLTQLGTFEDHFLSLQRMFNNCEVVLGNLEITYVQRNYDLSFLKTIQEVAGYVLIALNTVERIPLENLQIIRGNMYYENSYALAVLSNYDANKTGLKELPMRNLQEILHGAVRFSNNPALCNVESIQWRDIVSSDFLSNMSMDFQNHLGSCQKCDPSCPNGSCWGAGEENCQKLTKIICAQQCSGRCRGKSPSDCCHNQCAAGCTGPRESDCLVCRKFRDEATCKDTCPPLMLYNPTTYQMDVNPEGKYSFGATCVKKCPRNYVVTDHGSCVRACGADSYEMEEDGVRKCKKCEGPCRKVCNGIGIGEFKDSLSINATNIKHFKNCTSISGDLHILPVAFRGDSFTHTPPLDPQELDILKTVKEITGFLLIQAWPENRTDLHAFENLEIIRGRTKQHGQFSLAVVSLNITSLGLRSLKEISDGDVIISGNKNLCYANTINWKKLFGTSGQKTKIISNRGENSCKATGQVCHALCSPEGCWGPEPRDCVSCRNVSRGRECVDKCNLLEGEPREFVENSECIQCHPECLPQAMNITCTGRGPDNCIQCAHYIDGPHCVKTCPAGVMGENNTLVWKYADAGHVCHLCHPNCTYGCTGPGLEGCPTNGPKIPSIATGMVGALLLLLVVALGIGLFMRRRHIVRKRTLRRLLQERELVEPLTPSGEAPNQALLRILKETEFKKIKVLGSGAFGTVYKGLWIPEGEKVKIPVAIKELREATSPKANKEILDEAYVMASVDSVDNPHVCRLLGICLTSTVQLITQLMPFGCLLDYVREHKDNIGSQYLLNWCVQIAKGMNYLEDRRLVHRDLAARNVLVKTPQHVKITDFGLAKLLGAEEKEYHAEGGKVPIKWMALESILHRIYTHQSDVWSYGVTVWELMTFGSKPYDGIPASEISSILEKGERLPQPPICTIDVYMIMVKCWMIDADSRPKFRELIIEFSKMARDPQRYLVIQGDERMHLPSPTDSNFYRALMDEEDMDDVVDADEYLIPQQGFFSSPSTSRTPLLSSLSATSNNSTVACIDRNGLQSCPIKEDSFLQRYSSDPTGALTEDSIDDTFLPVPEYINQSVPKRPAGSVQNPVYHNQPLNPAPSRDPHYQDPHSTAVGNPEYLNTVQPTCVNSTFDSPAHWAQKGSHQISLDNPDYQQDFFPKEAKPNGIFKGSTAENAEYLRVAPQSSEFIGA
UniProt P00533, 25-1210 T790M/L858R limits assumed: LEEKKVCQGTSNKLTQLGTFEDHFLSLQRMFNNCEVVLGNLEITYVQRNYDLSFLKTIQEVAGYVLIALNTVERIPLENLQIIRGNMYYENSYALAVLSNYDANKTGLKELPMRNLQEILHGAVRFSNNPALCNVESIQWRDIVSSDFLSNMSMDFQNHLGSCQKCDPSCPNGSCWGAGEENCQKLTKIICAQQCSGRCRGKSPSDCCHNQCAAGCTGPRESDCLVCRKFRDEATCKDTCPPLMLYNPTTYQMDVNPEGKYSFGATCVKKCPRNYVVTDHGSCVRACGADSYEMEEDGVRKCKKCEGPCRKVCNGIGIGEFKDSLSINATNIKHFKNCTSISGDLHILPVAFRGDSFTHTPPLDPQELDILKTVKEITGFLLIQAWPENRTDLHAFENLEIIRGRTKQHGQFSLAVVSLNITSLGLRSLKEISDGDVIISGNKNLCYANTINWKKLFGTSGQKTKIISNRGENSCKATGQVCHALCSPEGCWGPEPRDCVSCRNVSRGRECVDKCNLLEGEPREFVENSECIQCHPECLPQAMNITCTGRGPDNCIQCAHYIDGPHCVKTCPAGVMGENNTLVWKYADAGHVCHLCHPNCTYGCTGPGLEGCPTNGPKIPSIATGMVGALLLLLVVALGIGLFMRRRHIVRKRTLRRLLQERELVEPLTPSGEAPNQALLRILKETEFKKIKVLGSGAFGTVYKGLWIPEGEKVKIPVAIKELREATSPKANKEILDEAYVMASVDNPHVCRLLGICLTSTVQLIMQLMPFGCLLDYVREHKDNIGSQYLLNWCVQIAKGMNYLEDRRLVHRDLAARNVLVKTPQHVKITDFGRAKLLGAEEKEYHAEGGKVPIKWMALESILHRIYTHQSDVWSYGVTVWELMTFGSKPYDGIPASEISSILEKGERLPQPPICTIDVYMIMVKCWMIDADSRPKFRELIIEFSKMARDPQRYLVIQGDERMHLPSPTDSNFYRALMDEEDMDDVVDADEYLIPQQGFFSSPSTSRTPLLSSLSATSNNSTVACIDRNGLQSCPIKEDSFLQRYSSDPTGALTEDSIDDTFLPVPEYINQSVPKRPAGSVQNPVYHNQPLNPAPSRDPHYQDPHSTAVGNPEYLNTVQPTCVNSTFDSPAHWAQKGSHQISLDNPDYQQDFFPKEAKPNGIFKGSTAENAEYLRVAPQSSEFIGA
UniProt P04626, with tags, fused parts or gaps DUP772-775: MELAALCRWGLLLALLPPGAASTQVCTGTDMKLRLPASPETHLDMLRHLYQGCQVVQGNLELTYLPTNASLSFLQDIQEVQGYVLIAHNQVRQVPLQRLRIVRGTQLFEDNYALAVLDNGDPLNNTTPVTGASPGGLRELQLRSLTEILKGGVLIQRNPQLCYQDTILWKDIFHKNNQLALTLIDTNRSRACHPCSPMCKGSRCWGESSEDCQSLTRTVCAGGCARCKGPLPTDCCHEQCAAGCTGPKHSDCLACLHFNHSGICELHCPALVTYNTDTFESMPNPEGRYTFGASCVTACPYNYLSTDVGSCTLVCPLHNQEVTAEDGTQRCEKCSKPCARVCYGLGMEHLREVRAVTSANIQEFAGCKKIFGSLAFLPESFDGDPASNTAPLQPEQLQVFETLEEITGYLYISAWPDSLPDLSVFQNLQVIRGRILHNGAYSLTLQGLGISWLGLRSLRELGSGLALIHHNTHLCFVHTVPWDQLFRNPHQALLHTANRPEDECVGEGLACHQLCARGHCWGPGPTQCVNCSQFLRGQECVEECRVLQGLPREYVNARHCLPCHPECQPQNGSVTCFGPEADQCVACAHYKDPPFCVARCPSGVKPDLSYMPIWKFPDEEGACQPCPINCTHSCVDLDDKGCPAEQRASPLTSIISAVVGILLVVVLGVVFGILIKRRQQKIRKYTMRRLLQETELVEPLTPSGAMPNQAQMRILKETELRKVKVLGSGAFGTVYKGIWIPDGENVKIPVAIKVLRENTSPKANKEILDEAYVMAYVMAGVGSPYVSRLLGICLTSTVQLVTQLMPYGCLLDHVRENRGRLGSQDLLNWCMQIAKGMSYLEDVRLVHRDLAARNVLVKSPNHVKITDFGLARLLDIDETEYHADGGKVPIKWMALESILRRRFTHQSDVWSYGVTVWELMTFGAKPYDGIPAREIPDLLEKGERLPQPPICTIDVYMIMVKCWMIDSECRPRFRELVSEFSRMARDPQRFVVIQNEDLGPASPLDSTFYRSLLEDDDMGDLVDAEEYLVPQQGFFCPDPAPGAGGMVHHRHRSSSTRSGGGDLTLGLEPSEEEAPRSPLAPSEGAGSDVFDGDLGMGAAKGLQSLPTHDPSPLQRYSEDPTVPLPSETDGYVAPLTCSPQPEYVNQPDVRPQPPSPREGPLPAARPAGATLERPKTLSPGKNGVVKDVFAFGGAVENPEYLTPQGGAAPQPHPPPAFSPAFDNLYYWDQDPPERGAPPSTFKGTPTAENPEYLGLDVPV

Assays:
EGFR (T790M/L858R) = EGFR (T790M/L858R) (Homo sapiens, UniProt P00533, L858R/T790M); assay: EGFR L858R/T790M enzyme inhibition assay (HTRF); details: read-out: EGFR_L858R T790M_IC50_nM, 5 μM ATP, 60 min
Experimental: Example 2: EGFR L858R & Del19/T790M Assay Protocol (to Find the IC50 for the Compounds Using HTRF Method)
Reagents for Enzyme Assay:
• 1. Enzyme Assay Buffer: 60 mM HEPES (pH 7.4), 50 mM NaCl, 20 mM MgCl2, 5 mM MnCl2, filtered using 0.2 μm pore size, stored at 4° C. • Supplements (added fresh to the enzyme buffer): 1M DTT stock was made, 5% BSA stock and 0.1M Na3OV4 stored at 4° C. Enzyme assay buffer 50 mL, 1 M DTT 100 μL, 5% BSA 500 μL, 0.1 M Na3OV4 50 μL. • 2. GST-hEGFR (L858R), active: EGFR (T790M/L858R), active (Proqinase), 3.6 μM stock; 2.5 nM in final assay. • 3. Gastrin Precusor-Biotinylated: Gastrin precursor (Tyr87) biotinylated peptide, EEAY*GWM, Cell Signaling Tech 1310, Lot-7, Want final 0.5 μM in assay. • 4. ATP: 10 mM stock in 100 μL Enzyme assay buffer pH 7.4 prepared freshly, want 5 μM in final assay. • 5. Test compounds: Powders were dissolved in 100% DMSO and made up to a final stock concentration of 10 mM (volume in μL to add for 10 mM=mg powder X 10^5/MW). Final compound concentration in the assay plate started at 10 μM.
• 1. […]
• 1. […] The reading was taken in Pherastar (ext 337 nm, Em 665 & 620 nm). • 9. The results were analyzed using Graphpad prism after calculation of the z factor, signal window and % inhibition to get the IC50.

[1] = test system: H1975 cells (L858R_T790M mutant); assay: H1975 proliferation assay; type: cell-based; details: read-out: Proliferation_Assay H1975 cells-EC50_nM L858R_T790M_mutant
A431 cells = assay: Cellular proliferation (Alamar Blue) assay, A431; details: read-out: A431 IC50, 72 hr
Experimental: (§1) Example 3: Cellular Proliferation (Alamar Blue) Assays
(§2) • 1. EGFR(D770_N771insSVD) expressing Ba/F3 stable cell line • 2. EGFR (A767_dupASV) expressing Ba/F3 stable cell line • 3. A431 cells • 4. BTER2 (A775_G776insYVMA) expressing Ba/F3 stable cell line • 5. BTER2 (WT) expressing Ba/F3 stable cell line • 6. BT-474 cells
(§3) • 1. Seed cells at 5000 for A431 and 15,000 cells for Ba/F3 in 100 μL/well in complete media (for A431: DMEM with 10% FBS and for Ba/F3 cells: RPMI with 10% FBS) in 96-well tissue culture plate. Leave outer wells without cells for background measurements. Incubate at 37 degree Celsius in 5% CO2 humidified incubator for 16-18 hours. • 2. Add 0.025 ml of 5× concentration compound dilution or DMSO control. Final compound concentration range is 10-0.0005 μM prepared in 3-fold serial dilutions. Incubate for 72 hr at 37 degree Celsius in […] humidified incubator. • 3. Add 0.0125 mL Alamar Blue™ reagent to each well with multi-channel pipette and tap gently on each side of the plate to mix. Incubate for 3 hours at 37 degree Celsius in […] humidified incubator. • 4. Read plates on fluorescence reader (Tecan Spark Control, Device: Spark, Serial #: 1801006040) at 540 nm excitation, 590 nm emission wavelength. • 5. Data analysis was performed using XLfit 5.5.0.5.

[2] = target: EGFR (A767_dupASV) expressing Ba/F3 stable cell line (Homo sapiens, UniProt P00533, DUP767-769, cells depend on it); assay: Cellular proliferation (Alamar Blue) assay, EGFR A767_dupASV Ba/F3; details: read-out: A767 IC50, EGFR A767_dupASV Ba/F3, 72 hr
Experimental: as §1, §2, §3

[3] = target: EGFR(D770_N771insSVD) expressing Ba/F3 stable cell line (Homo sapiens, UniProt P00533, DUP768-770, cells depend on it); assay: Cellular proliferation (Alamar Blue) assay, EGFR D770_N771insSVD Ba/F3; details: read-out: D770 IC50, EGFR D770_N771insSVD Ba/F3, 72 hr
Experimental: as §1, §2, §3

[4] = target: HER2 (A775_G776insYVMA) expressing Ba/F3 stable cell line (Homo sapiens, UniProt P04626, DUP772-775, cells depend on it); assay: Cellular proliferation (Alamar Blue) assay, HER2 YVMA Ba/F3; details: read-out: YVMA IC50, HER2 A775_G776insYVMA Ba/F3, 72 hr
Experimental: as §1, §2, §3

SMILES | IC50 (EGFR (T790M/L858R)) | EC50 [1] | IC50 (A431 cells) | GI50 [2] | GI50 [3] | GI50 [4]
C=CC(=O)NC1CCCC(N2C(=O)N(Cc3ccccc3)Cc3cnc(Nc4cc(C)ns4)nc32)C1 (stereo not shown) | 28 nM | 75.4 nM | 150 nM | 417 nM | 149 nM | –
C=CC(=O)Nc1cccc(N2C(=O)N(Cc3ccc(F)nc3)Cc3cnc(Nc4cn(C)nc4Cl)nc32)c1 | – | – | > 10000 nM | 347 nM | 374 nM | 452 nM
CN(C)C/C=C/C(=O)Nc1cccc(N2C(=O)N(Cc3ccccc3)Cc3cnc(Nc4cn(C)nc4F)nc32)c1 | – | – | ≥ 10000 nM | 394 nM | 980 nM | 125 nM
CN(C)C/C=C/C(=O)Nc1cccc(N2C(=O)N(Cc3ccccc3)Cc3cnc(Nc4cnn5ccccc45)nc32)c1 | – | – | ≥ 10000 nM | 329 nM | 645 nM | –
